Measurements reported in US20130225436A1.

Chains of the proteins cited; added tags and fusions are not shown. Lines headed by an entry give the natural chain unless they say otherwise; changes in a name come on top.
UniProt P45974: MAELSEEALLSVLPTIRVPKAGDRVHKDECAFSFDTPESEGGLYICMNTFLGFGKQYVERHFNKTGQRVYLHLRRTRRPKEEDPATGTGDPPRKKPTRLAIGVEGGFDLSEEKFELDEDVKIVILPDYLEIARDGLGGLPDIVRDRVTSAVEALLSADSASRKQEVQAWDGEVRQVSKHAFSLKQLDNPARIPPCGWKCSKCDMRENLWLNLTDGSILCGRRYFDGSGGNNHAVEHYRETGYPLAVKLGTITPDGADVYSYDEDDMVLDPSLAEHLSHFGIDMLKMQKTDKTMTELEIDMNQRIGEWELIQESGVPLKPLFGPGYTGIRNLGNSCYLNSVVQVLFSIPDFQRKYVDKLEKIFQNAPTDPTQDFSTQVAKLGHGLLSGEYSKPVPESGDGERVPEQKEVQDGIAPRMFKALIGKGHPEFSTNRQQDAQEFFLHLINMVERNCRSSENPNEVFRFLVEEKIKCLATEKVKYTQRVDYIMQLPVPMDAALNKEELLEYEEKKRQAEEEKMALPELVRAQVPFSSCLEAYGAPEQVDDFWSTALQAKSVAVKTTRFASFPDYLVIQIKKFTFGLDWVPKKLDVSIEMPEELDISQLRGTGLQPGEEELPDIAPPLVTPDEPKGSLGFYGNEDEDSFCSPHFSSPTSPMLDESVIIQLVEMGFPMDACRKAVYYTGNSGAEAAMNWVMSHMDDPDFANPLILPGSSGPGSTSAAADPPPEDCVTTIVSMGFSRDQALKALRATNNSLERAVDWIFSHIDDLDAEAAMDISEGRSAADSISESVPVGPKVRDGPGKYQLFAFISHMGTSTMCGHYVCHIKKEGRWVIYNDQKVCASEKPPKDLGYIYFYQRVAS

Biological target: USP5 (residues 1-835) (UniProt P45974)
Experiment: phage ELISA after 5 rounds of selection

Row | binding | Binder
1 | binds | USP5-F8 (designed binder) MRIFVKTRMMESIFLEVEPSDTIENVKAKIQDKEGIPPDQQRLIFAGQQLEDGRTLSDYNIQKESTLHLVVRFRSARR
2 | binds | USP5-H4 (designed binder) MQIFVNTRLMYSITLEVEPSDTIENVKAKIQDKEGIPPDQQRLIFAGKQLEDGRTLSDYNIQKESTLHLVLRISRGLP
3 | binds | USP5-F9 (designed binder) MPIFVNTRWMKTIPLEVEPSDTIENVKAKIQDKEGIPPDQQRLIFDRKQLEDGRTLSDYNIQKESTLHLVLRDLGVFC
4 | binds | USP5-F11 (designed binder) MQIFVQTRVMNTITLEVEPSDTIENVKAKIQDKEGIPPDQQRLIFATKQLEDGRTLSDYNIHKDSTLHLLLRMRRLNK
5 | binds | USP5-E4 (designed binder) MEIYVNTRLLETINLEVEPSDTIENVKAKIQDKEGIPPDQQRLIFAGKQLEDGRTLSDYNIQKKSTLYLVLRLLGQRH
6 | binds | USP5-F3 (designed binder) MQIFVQTRAMWTITLEVEPSDTIENVKAKIQDKEGIPPDQQRLIFAGKQLEDGRTLSDYNIPKESTLHLVLRLRGGGG
7 | binds | USP5-H11 (designed binder) MQIVVNTRSMNTIHLEVEPSDTIENVKAKIQDKEGIPPDQQRLIFAGKQLEDGRTLSDYNIQKRSTLYLVLRLRGGGG
8 | binds | USP5-G8 (designed binder) MQIIVRTRAMWTIALEVEPSDTIENVKAKIQDKEGIPPDQQRLIFAGKQLEDGRTLSDYNIRTESTLHLVLRLRGGGG
9 | binds | USP5-H8 (designed binder) MQIFVNTRMMETIALEVEPSDTIENVKAKIQDKEGIPPDQQSLIFAGKRLEDGRTLSDYNIQKSSTLHLVLRLRGGGG
10 | binds | USP5-H12 (designed binder) MRIVVNTRYMNTISLEVEPSDTIENVKAKIQDKEGIPPDQQTLIFAGKQLEDGRTLSDYNIHKESTLHLVLRLRGGGG
11 | binds | USP5-G11 (designed binder) MQISVNTRMMESITLEVEPSDTIENVKAKIQDKEGIPPDQQRLIFAGKQLEDGRTLSDYNILPESTLHLVLRLRGGGG
12 | binds | USP5-H7 (designed binder) MQILVRTRIMETITLEVEPSDTIENVKAKIQDKEGIPPDQQRLIFAGNQLEDGRTLSDYNIQKESTLHLVLRLRGGGG

No constants are given. Whether binding was seen depends on the method and setting. A result given as binding can be weak or reduced; the word gives no strength.
